Measured values published in the supplement of paper PMC8728848.
The list shows a part of the results.

How the values were obtained:
Assay in all cases: glycan array binding signal (z-score within array); higher = stronger binding
Conditions in all cases: glycan notation: IUPAC condensed, linker removed
[1] = molecular target: Gal(b1-4)GlcNAc(b1-3)Gal(b1-4)GlcNAc(b1-6)[Gal(b1-3)]GalNAc
Summary of the method: (§1)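 The binding signal is a Z-score computed within each array. Data were drawn from 3228 arrays in the Consortium for Functional Glycomics database, restricted to those with a known protein sequence. Scores were averaged over arrays of the same protein sequence at different concentrations or buffers, and over linkers, and negative values can be taken as non-binding.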

[2] = molecular target: Gal(b1-4)GlcNAc(b1-3)Gal(b1-4)[Fuc(a1-3)]GlcNAc(b1-3)Gal(b1-4)[Fuc(a1-3)]GlcNAc
Summary of the method: as §1

[3] = molecular target: Gal(b1-4)GlcNAc(b1-3)GalNAc
Summary of the method: as §1

[4] = molecular target: Gal(b1-4)GlcNAc(b1-3)[Fuc(a1-3)GlcNAc(b1-6)]Gal(b1-4)Glc
Summary of the method: as §1

[5] = molecular target: Gal(b1-4)GlcNAc(b1-3)[Gal(b1-4)GlcNAc(b1-6)]Gal(b1-4)GlcNAc
Summary of the method: as §1

[6] = molecular target: Gal(b1-4)GlcNAc(b1-3)[GlcNAc(b1-6)]Gal(b1-4)GlcNAc
Summary of the method: as §1

[7] = molecular target: Gal(b1-4)GlcNAc(b1-6)Gal(b1-4)GlcNAc
Summary of the method: as §1

[8] = molecular target: Gal(b1-4)GlcNAc(b1-6)GalNAc
Summary of the method: as §1

[9] = molecular target: Gal(b1-4)GlcNAc(b1-6)[Gal(b1-3)]GalNAc
Summary of the method: as §1

[10] = molecular target: Gal(b1-4)GlcNAc(b1-6)[Gal(b1-4)GlcNAc(b1-3)]GalNAc
Summary of the method: as §1

Gal(b1-4)GlcNAc6P = molecular target: Gal(b1-4)GlcNAc6P
Summary of the method: as §1

Gal(b1-6)Gal = molecular target: Gal(b1-6)Gal
Summary of the method: as §1

Gal3S(b1-3)GalNAc = molecular target: Gal3S(b1-3)GalNAc
Summary of the method: as §1

Gal3S(b1-3)GlcNAc = molecular target: Gal3S(b1-3)GlcNAc
Summary of the method: as §1

[11] = molecular target: Gal3S(b1-3)[Fuc(a1-4)]GlcNAc
Summary of the method: as §1

Gal3S(b1-4)Glc = molecular target: Gal3S(b1-4)Glc
Summary of the method: as §1

Gal3S(b1-4)Glc6S = molecular target: Gal3S(b1-4)Glc6S
Summary of the method: as §1

Gal3S(b1-4)GlcNAc = molecular target: Gal3S(b1-4)GlcNAc
Summary of the method: as §1

[12] = molecular target: Gal3S(b1-4)[Fuc(a1-3)]Glc6S
Summary of the method: as §1

[13] = molecular target: Gal3S(b1-4)[Fuc(a1-3)]GlcNAc
Summary of the method: as §1

[14] = molecular target: Gal3S(b1-4)[Fuc(a1-3)]GlcNAc6S
Summary of the method: as §1

Gal3S4S(b1-4)GlcNAc = molecular target: Gal3S4S(b1-4)GlcNAc
Summary of the method: as §1

Gal3S6S(b1-4)GlcNAc = molecular target: Gal3S6S(b1-4)GlcNAc
Summary of the method: as §1

Gal3S6S(b1-4)GlcNAc6S = molecular target: Gal3S6S(b1-4)GlcNAc6S
Summary of the method: as §1

Gal4S(b1-4)GlcNAc = molecular target: Gal4S(b1-4)GlcNAc
Summary of the method: as §1

Gal4S6S(b1-4)GlcNAc = molecular target: Gal4S6S(b1-4)GlcNAc
Summary of the method: as §1

Gal6P(b1-4)GlcNAc = molecular target: Gal6P(b1-4)GlcNAc
Summary of the method: as §1

Gal6S(b1-3)GlcNAc = molecular target: Gal6S(b1-3)GlcNAc
Summary of the method: as §1

Gal6S(b1-3)GlcNAc6S = molecular target: Gal6S(b1-3)GlcNAc6S
Summary of the method: as §1

Gal6S(b1-4)Glc = molecular target: Gal6S(b1-4)Glc
Summary of the method: as §1

Gal6S(b1-4)Glc6S = molecular target: Gal6S(b1-4)Glc6S
Summary of the method: as §1

Gal6S(b1-4)GlcNAc = molecular target: Gal6S(b1-4)GlcNAc
Summary of the method: as §1

Gal6S(b1-4)GlcNAc6S = molecular target: Gal6S(b1-4)GlcNAc6S
Summary of the method: as §1

GalNAc(a1-3)Gal = molecular target: GalNAc(a1-3)Gal
Summary of the method: as §1

GalNAc(a1-3)GalNAc = molecular target: GalNAc(a1-3)GalNAc
Summary of the method: as §1

[15] = molecular target: GalNAc(a1-3)GalNAc(b1-3)Gal(a1-4)Gal(b1-4)Glc
Summary of the method: as §1

[16] = molecular target: GalNAc(a1-3)GalNAc(b1-3)Gal(a1-4)Gal(b1-4)GlcNAc
Summary of the method: as §1

B1: Clec39 (Caenorhabditis elegans) (protein)
chain: MTSFYDNSSSSSKPVPLKTSRAQKIQILIFDNWKLILYGAISTLILVLAIMFSTLFFALPAANCDENSEPTKYYTTNAEITTTITTTNQKTTSTASSHLTTISSSATQIYSESSSSSTSQSTFTQSPPEISTTTIAPSDFSCQHGFTLVNNKCWKLVTSNQARPDADKICNGYGGATLFSIKSEQDNRAMIHFVKGQDIDFLWSGLLCSAGEPISCIWDIENGSTANYSNFADGFPNIVYGNCVYFITSGDEAGQWGNEQCGQVMNFVCELPATFQGKDGCKNNYEKSCYLRFDLNLTVPQAQNFCLEKCANLVSIHSANEVRFIMTIYDFIGEILIGALAPAQDFIYWLDGTPANYNNLKFFYNSTCVHMTVAPGMQNVGKWFTRFCTETGKFLCKRSIKNSCT
glycan array binding signal (z-score) [1]: 0.593 | glycan array binding signal (z-score) [2]: -0.298 | glycan array binding signal (z-score) [3]: 0.504 | glycan array binding signal (z-score) [4]: -0.645 | glycan array binding signal (z-score) [5]: -0.864 | glycan array binding signal (z-score) [6]: -0.859 | glycan array binding signal (z-score) [7]: -1.37 | glycan array binding signal (z-score) [8]: -0.057 | glycan array binding signal (z-score) [9]: -0.112 | glycan array binding signal (z-score) [10]: 5.43 | glycan array binding signal (z-score) (Gal(b1-4)GlcNAc6P): -0.183 | glycan array binding signal (z-score) (Gal(b1-6)Gal): -0.588 | glycan array binding signal (z-score) (Gal3S(b1-3)GalNAc): -0.265 | glycan array binding signal (z-score) (Gal3S(b1-3)GlcNAc): -0.524 | glycan array binding signal (z-score) [11]: -0.33 | glycan array binding signal (z-score) (Gal3S(b1-4)Glc): 0.229 | glycan array binding signal (z-score) (Gal3S(b1-4)Glc6S): 0.293 | glycan array binding signal (z-score) (Gal3S(b1-4)GlcNAc): -0.993 | glycan array binding signal (z-score) [12]: 0.923 | glycan array binding signal (z-score) [13]: 0.377 | glycan array binding signal (z-score) [14]: 0.809 | glycan array binding signal (z-score) (Gal3S4S(b1-4)GlcNAc): -0.572 | glycan array binding signal (z-score) (Gal3S6S(b1-4)GlcNAc): 0.328 | glycan array binding signal (z-score) (Gal3S6S(b1-4)GlcNAc6S): 0.426 | glycan array binding signal (z-score) (Gal4S(b1-4)GlcNAc): -1.02 | glycan array binding signal (z-score) (Gal4S6S(b1-4)GlcNAc): -0.462 | glycan array binding signal (z-score) (Gal6P(b1-4)GlcNAc): -0.018 | glycan array binding signal (z-score) (Gal6S(b1-3)GlcNAc): 0.971 | glycan array binding signal (z-score) (Gal6S(b1-3)GlcNAc6S): 0.39 | glycan array binding signal (z-score) (Gal6S(b1-4)Glc): -0.342 | glycan array binding signal (z-score) (Gal6S(b1-4)Glc6S): 2 | glycan array binding signal (z-score) (Gal6S(b1-4)GlcNAc): 1.33 | glycan array binding signal (z-score) (Gal6S(b1-4)GlcNAc6S): 1.23 | glycan array binding signal (z-score) (GalNAc(a1-3)Gal): -0.675 | glycan array binding signal (z-score) (GalNAc(a1-3)GalNAc): -1.26 | glycan array binding signal (z-score) [15]: 0.099 | glycan array binding signal (z-score) [16]: -0.848
